Laboratory results taken from ChEMBL document CHEMBL2074017, “Distinct characteristics of organic cation transporters, OCT1 and OCT2, in the basolateral membrane of renal tubules” (Pharm Res, 2001).

Tests used:
[1] = target: T1, Solute carrier family 22 member 1 (Rattus norvegicus, UniProt Q63089); type: functional, cell-based, MDCK
T1 sequence (Q63089 whole entry): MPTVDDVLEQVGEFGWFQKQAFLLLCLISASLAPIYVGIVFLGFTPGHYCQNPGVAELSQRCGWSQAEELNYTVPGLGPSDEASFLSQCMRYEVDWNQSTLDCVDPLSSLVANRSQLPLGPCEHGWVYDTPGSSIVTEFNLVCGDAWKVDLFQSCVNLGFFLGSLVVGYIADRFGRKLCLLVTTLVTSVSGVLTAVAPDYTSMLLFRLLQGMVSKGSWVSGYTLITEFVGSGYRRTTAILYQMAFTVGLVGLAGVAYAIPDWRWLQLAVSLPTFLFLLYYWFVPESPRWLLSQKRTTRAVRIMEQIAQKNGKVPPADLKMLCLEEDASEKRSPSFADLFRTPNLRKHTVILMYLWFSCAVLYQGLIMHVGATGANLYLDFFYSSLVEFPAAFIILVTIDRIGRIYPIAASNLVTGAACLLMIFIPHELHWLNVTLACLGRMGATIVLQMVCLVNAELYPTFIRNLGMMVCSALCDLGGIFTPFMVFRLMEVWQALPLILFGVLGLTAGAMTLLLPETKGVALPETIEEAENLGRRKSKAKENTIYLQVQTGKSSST

[2] = target: T2, Solute carrier family 22 member 2 (Rattus norvegicus, UniProt Q9R0W2); type: functional, cell-based, MDCK
T2 sequence (Q9R0W2 whole entry): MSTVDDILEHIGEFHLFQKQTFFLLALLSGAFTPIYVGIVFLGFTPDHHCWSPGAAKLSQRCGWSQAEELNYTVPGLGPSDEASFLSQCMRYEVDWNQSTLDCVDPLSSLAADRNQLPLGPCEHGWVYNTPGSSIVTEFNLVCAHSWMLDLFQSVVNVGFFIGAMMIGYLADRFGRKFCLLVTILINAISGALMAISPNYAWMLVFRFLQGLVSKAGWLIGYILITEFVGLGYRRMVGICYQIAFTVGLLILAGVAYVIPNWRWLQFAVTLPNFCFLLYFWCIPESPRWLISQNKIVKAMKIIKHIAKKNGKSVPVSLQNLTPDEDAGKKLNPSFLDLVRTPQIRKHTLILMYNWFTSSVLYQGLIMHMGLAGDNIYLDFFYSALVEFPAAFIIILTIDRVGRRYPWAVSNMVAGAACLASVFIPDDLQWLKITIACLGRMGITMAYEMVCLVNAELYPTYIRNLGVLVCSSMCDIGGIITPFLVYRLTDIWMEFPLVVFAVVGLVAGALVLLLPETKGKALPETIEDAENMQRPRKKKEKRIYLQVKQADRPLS

CN(C)CCOC(c1ccccc1)c1ccccc1 [DIPHENHYDRAMINE]
IC50 [1]: 24 µM
IC50 [2]: 32 µM
